Results taken from ChEMBL document CHEMBL1157379, “Transcriptional response of Candida parapsilosis following exposure to farnesol” (2007).
This continues a long series; more values of the same kind are listed elsewhere.

Columns and labels:
Assay type in all cases: functional
Candida parapsilosis [1] = assay: Decrease in CGD gene ortholog accession number orf19.479 expression in Candida parapsilosis CLIB214 at 50 uM after 2 hrs by microarray based transcriptional profiling relative to control
Candida parapsilosis [2] = assay: Decrease in FRE7 gene expression in Candida parapsilosis CLIB214 at 50 uM after 2 hrs by microarray based transcriptional profiling relative to control
Candida parapsilosis [3] = assay: Increase in GDB1 gene expression in Candida parapsilosis CLIB214 at 50 uM after 2 hrs by microarray based transcriptional profiling relative to control
Candida parapsilosis [4] = assay: Increase in HOM6 gene expression in Candida parapsilosis CLIB214 at 50 uM after 2 hrs by microarray based transcriptional profiling relative to control
Candida parapsilosis [5] = assay: Increase in CGD gene ortholog accession number orf19.6062 expression in Candida parapsilosis CLIB214 at 50 uM after 2 hrs by microarray based transcriptional profiling relative to control
Candida parapsilosis [6] = assay: Decrease in CGD gene ortholog accession number orf19.100 expression in Candida parapsilosis CLIB214 at 50 uM after 2 hrs by microarray based transcriptional profiling relative to control
Candida parapsilosis [7] = assay: Decrease in GenBank accession number XP_451524. 1 expression in Candida parapsilosis CLIB214 at 50 uM after 2 hrs by microarray based transcriptional profiling relative to control
Candida parapsilosis [8] = assay: Increase in CGD gene ortholog accession number orf19.6810 expression in Candida parapsilosis CLIB214 at 50 uM after 2 hrs by microarray based transcriptional profiling relative to control
Candida parapsilosis [9] = assay: Decrease in CGD gene ortholog accession number orf19.6100 expression in Candida parapsilosis CLIB214 at 50 uM after 2 hrs by microarray based transcriptional profiling relative to control
Candida parapsilosis [10] = assay: Increase in ILV5 gene expression in Candida parapsilosis CLIB214 at 50 uM after 2 hrs by microarray based transcriptional profiling relative to control
Candida parapsilosis [11] = assay: Decrease in CGD gene ortholog accession number orf19.2101 expression in Candida parapsilosis CLIB214 at 50 uM after 2 hrs by microarray based transcriptional profiling relative to control
Candida parapsilosis [12] = assay: Decrease in CGD gene ortholog accession number orf19.3231 expression in Candida parapsilosis CLIB214 at 50 uM after 2 hrs by microarray based transcriptional profiling relative to control
Candida parapsilosis [13] = assay: Increase in GRP2 gene expression in Candida parapsilosis CLIB214 at 50 uM after 2 hrs by microarray based transcriptional profiling relative to control
Candida parapsilosis [14] = assay: Decrease in CGD gene ortholog accession number orf19.2400 expression in Candida parapsilosis CLIB214 at 50 uM after 2 hrs by microarray based transcriptional profiling relative to control
Candida parapsilosis [15] = assay: Increase in UGT51C1 gene expression in Candida parapsilosis CLIB214 at 50 uM after 2 hrs by microarray based transcriptional profiling relative to control
Candida parapsilosis [16] = assay: Increase in CGD gene ortholog accession number orf19.7020 expression in Candida parapsilosis CLIB214 at 50 uM after 2 hrs by microarray based transcriptional profiling relative to control
Candida parapsilosis [17] = assay: Decrease in CGD gene ortholog accession number orf19.1850 expression in Candida parapsilosis CLIB214 at 50 uM after 2 hrs by microarray based transcriptional profiling relative to control
Candida parapsilosis [18] = assay: Decrease in CGD gene ortholog accession number orf19.4231 expression in Candida parapsilosis CLIB214 at 50 uM after 2 hrs by microarray based transcriptional profiling relative to control
Candida parapsilosis [19] = assay: Increase in CGD gene ortholog accession number orf19.1682 expression in Candida parapsilosis CLIB214 at 50 uM after 2 hrs by microarray based transcriptional profiling relative to control
Candida parapsilosis [20] = assay: Decrease in MED8 gene expression in Candida parapsilosis CLIB214 at 50 uM after 2 hrs by microarray based transcriptional profiling relative to control
Candida parapsilosis [21] = assay: Increase in YCP4 gene expression in Candida parapsilosis CLIB214 at 50 uM after 2 hrs by microarray based transcriptional profiling relative to control
Candida parapsilosis [22] = assay: Increase in CGD gene ortholog accession number orf19.3509 expression in Candida parapsilosis CLIB214 at 50 uM after 2 hrs by microarray based transcriptional profiling relative to control
Candida parapsilosis [23] = assay: Decrease in CGD gene ortholog accession number orf19.2455 expression in Candida parapsilosis CLIB214 at 50 uM after 2 hrs by microarray based transcriptional profiling relative to control
Candida parapsilosis [24] = assay: Increase in CGD gene ortholog accession number orf19.2070 expression in Candida parapsilosis CLIB214 at 50 uM after 2 hrs by microarray based transcriptional profiling relative to control
Candida parapsilosis [25] = assay: Increase in CGD gene ortholog accession number orf19.3647 expression in Candida parapsilosis CLIB214 at 50 uM after 2 hrs by microarray based transcriptional profiling relative to control
Candida parapsilosis [26] = assay: Decrease in CGD gene ortholog accession number orf19.4376 expression in Candida parapsilosis CLIB214 at 50 uM after 2 hrs by microarray based transcriptional profiling relative to control
Candida parapsilosis [27] = assay: Decrease in CGD gene ortholog accession number orf19.2940 expression in Candida parapsilosis CLIB214 at 50 uM after 2 hrs by microarray based transcriptional profiling relative to control
Candida parapsilosis [28] = assay: Increase in CGD gene ortholog accession number orf19.4609 expression in Candida parapsilosis CLIB214 at 50 uM after 2 hrs by microarray based transcriptional profiling relative to control
Candida parapsilosis [29] = assay: Decrease in CGD gene ortholog accession number orf19.7629 expression in Candida parapsilosis CLIB214 at 50 uM after 2 hrs by microarray based transcriptional profiling relative to control
Candida parapsilosis [30] = assay: Decrease in CGD gene ortholog accession number orf19.538 expression in Candida parapsilosis CLIB214 at 50 uM after 2 hrs by microarray based transcriptional profiling relative to control
Candida parapsilosis [31] = assay: Increase in ACH1 gene expression in Candida parapsilosis CLIB214 at 50 uM after 2 hrs by microarray based transcriptional profiling relative to control
Candida parapsilosis [32] = assay: Increase in BMS1 gene expression in Candida parapsilosis CLIB214 at 50 uM after 2 hrs by microarray based transcriptional profiling relative to control
Candida parapsilosis [33] = assay: Increase in SMF12 gene expression in Candida parapsilosis CLIB214 at 50 uM after 2 hrs by microarray based transcriptional profiling relative to control
Candida parapsilosis [34] = assay: Decrease in CGD gene ortholog accession number orf19.6462 expression in Candida parapsilosis CLIB214 at 50 uM after 2 hrs by microarray based transcriptional profiling relative to control
Candida parapsilosis [35] = assay: Increase in CGD gene ortholog accession number orf19.7568 expression in Candida parapsilosis CLIB214 at 50 uM after 2 hrs by microarray based transcriptional profiling relative to control
Candida parapsilosis [36] = assay: Decrease in CGD gene ortholog accession number orf19.5780 expression in Candida parapsilosis CLIB214 at 50 uM after 2 hrs by microarray based transcriptional profiling relative to control

Question: How did the “fold change (FC)” value (Candida parapsilosis [1]) turn out when CC(C)=CCC/C(C)=C/CC/C(C)=C/CO [FARNESOL] was run?
Answer: 1.94

Question: And the “fold change (FC)” value (Candida parapsilosis [2])?
Answer: 1.93

Question: What about the “fold change (FC)” value (Candida parapsilosis [3]) of the same compound?
Answer: 1.58

Question: And the “fold change (FC)” value (Candida parapsilosis [4])?
Answer: 2.31

Question: And the “fold change (FC)” value (Candida parapsilosis [5])?
Answer: 1.68

Question: What about the “fold change (FC)” value (Candida parapsilosis [6]) of the same compound?
Answer: 2.2

Question: And the “fold change (FC)” value (Candida parapsilosis [7])?
Answer: 2.08

Question: And the “fold change (FC)” value (Candida parapsilosis [8])?
Answer: 1.83

Question: And the “fold change (FC)” value (Candida parapsilosis [9])?
Answer: 1.65

Question: And the “fold change (FC)” value (Candida parapsilosis [10])?
Answer: 2.61

Question: And the “fold change (FC)” value (Candida parapsilosis [11])?
Answer: 1.82

Question: And the “fold change (FC)” value (Candida parapsilosis [12])?
Answer: 1.76

Question: What about the “fold change (FC)” value (Candida parapsilosis [13]) of the same compound?
Answer: 15.54

Question: What about the “fold change (FC)” value (Candida parapsilosis [14]) of the same compound?
Answer: 1.71

Question: And the “fold change (FC)” value (Candida parapsilosis [15])?
Answer: 1.51

Question: What about the “fold change (FC)” value (Candida parapsilosis [16]) of the same compound?
Answer: 1.59

Question: What about the “fold change (FC)” value (Candida parapsilosis [17]) of the same compound?
Answer: 1.62

Question: What about the “fold change (FC)” value (Candida parapsilosis [18]) of the same compound?
Answer: 1.96

Question: What about the “fold change (FC)” value (Candida parapsilosis [19]) of the same compound?
Answer: 1.54

Question: What about the “fold change (FC)” value (Candida parapsilosis [20]) of the same compound?
Answer: 1.88

Question: What about the “fold change (FC)” value (Candida parapsilosis [21]) of the same compound?
Answer: 2.22

Question: And the “fold change (FC)” value (Candida parapsilosis [22])?
Answer: 1.5

Question: And the “fold change (FC)” value (Candida parapsilosis [23])?
Answer: 2.05

Question: What about the “fold change (FC)” value (Candida parapsilosis [24]) of the same compound?
Answer: 1.77

Question: And the “fold change (FC)” value (Candida parapsilosis [25])?
Answer: 1.77

Question: What about the “fold change (FC)” value (Candida parapsilosis [26]) of the same compound?
Answer: 1.83

Question: What about the “fold change (FC)” value (Candida parapsilosis [27]) of the same compound?
Answer: 2.11

Question: What about the “fold change (FC)” value (Candida parapsilosis [28]) of the same compound?
Answer: 1.54

Question: What about the “fold change (FC)” value (Candida parapsilosis [29]) of the same compound?
Answer: 2.09

Question: And the “fold change (FC)” value (Candida parapsilosis [30])?
Answer: 1.67

Question: What about the “fold change (FC)” value (Candida parapsilosis [31]) of the same compound?
Answer: 1.67

Question: And the “fold change (FC)” value (Candida parapsilosis [32])?
Answer: 2

Question: And the “fold change (FC)” value (Candida parapsilosis [33])?
Answer: 1.65

Question: And the “fold change (FC)” value (Candida parapsilosis [34])?
Answer: 1.65

Question: What about the “fold change (FC)” value (Candida parapsilosis [35]) of the same compound?
Answer: 1.64

Question: What about the “fold change (FC)” value (Candida parapsilosis [36]) of the same compound?
Answer: 1.62
